PubChem BioAssay AID504791 – Drosophila RNAi Screening Center | 2011
The deposit covers about 23,000 reagents; shown is an unselected part of those that have a named target and a result. In the full data, 199 (0.86%) are marked active. 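Plate-scaled ratios behind the calls are not deposited; printed light signals are raw; many rows marked increased or decreased are still called inactive.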 Unmarked entries are inactive. Names joined by + are all predicted targets of the reagent. Not stated in the record: the direction of the score.

- Test: 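Genes of the fly required for silencing by miRNA, siRNA or endo-siRNA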 (primary screen)
- System: Drosophila S2-derived reporter cells
- Knock-down reagent: long dsRNA against Drosophila genes, about 150-250 ng dsRNA per well (siRNA assay); about 80-120 ng (miRNA assay)
- Time to read-out: about 5 days (siRNA assay); about 4 days (miRNA assay)
- Treatment: copper sulfate induction of reporters: 25 µM (siRNA assay); 200 mM stated (miRNA assay), 1-2 days before reading
- Read-out: 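Per-well ratio of Renilla over firefly light, expressed relative to that plate's average ratio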
- Active means: 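First-pass picks had plate-scaled ratios over 1.5 for the siRNA assay, over 1.6 for the miRNA assay, or under 0.6; two distinct dsRNAs had to score alike on retest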

The first 3 entries, to show the layout:
Gene	dsRNA	stable siRNA reporter change	miRNA reporter change	stable assay Renilla, run 1 (luminescence)	stable assay firefly, run 1 (luminescence)
L2HGDH	DRSC02082		reporter ratio lowered past the hit cutoff	1.70e5	1.44e6
CG13454	DRSC10001			3624	3.64e5
AANATL2	DRSC03227			7822	4.07e5

Main list, from the first entry:
Gene	dsRNA	stable siRNA reporter change	miRNA reporter change	stable assay Renilla, run 1 (luminescence)	stable assay firefly, run 1 (luminescence)
L2HGDH	DRSC02082		reporter ratio lowered past the hit cutoff	1.70e5	1.44e6
CG13454	DRSC10001			3624	3.64e5
AANATL2	DRSC03227			7822	4.07e5
CG42362 + CG42363	DRSC04265			9348	3.43e5
ECSIT	DRSC12348			7127	3.93e5
PIP4K	DRSC17213			6403	3.61e5
rdgC	DRSC11387			6842	5.34e5
CG8668	DRSC03101			11335	7.98e5
GstE4	DRSC06674			6106	2.80e5
CG14762	DRSC05073			4683	4.02e5
CG14762	DRSC06496			6432	3.26e5
CG43740	DRSC17994			5620	4.67e5
CG43740	DRSC23267			4560	3.23e5
Pgant7	DRSC19991			7378	3.46e5
Dyrk2	DRSC03610			6478	1.49e6
Hmt4-20	DRSC18482			8650	3.20e5
Rchy1	DRSC02542			6280	3.53e5
Rchy1	DRSC23118	reporter ratio raised past the hit cutoff		3795	1.27e5
mus201 + Chrac-14	DRSC03568			7119	4.01e5
mus201 + Chrac-14	DRSC03575			7758	4.37e5
mus101	DRSC19388			5714	5.74e5
Grl58a	DRSC04145			6858	3.67e5
CG42750	DRSC02458			3663	2.10e5
CG42750	DRSC03019			7409	5.66e5
CG42750	DRSC03024			8739	6.48e5
CG42750	DRSC21414			9171	5.50e5
CG42750	DRSC23218			7034	4.56e5
CG32099	DRSC21352			8500	3.96e5
CG8635	DRSC07226			7843	4.43e5
FucTC	DRSC20966			5751	4.17e5
Edg78E	DRSC11863			6886	3.96e5
CG30109 + CG30108	DRSC05674			4731	3.66e5
OXA1L	DRSC09672			7803	4.42e5
CG17019	DRSC06642			8415	4.24e5
